Assay results: doi:10.1101/2022.06.05.494812
No constants are given. Whether binding was seen depends on the method and setting. Binding seen in cells or lysates may run through a third protein. Some entries that bind do so weakly or less than the wild type. For part of these data: Tags and fused reporters may be left off the sequences shown.

T1: Flag-Baz (Bazooka, Par3) (Drosophila) (UniProt O96782)
T1 sequence: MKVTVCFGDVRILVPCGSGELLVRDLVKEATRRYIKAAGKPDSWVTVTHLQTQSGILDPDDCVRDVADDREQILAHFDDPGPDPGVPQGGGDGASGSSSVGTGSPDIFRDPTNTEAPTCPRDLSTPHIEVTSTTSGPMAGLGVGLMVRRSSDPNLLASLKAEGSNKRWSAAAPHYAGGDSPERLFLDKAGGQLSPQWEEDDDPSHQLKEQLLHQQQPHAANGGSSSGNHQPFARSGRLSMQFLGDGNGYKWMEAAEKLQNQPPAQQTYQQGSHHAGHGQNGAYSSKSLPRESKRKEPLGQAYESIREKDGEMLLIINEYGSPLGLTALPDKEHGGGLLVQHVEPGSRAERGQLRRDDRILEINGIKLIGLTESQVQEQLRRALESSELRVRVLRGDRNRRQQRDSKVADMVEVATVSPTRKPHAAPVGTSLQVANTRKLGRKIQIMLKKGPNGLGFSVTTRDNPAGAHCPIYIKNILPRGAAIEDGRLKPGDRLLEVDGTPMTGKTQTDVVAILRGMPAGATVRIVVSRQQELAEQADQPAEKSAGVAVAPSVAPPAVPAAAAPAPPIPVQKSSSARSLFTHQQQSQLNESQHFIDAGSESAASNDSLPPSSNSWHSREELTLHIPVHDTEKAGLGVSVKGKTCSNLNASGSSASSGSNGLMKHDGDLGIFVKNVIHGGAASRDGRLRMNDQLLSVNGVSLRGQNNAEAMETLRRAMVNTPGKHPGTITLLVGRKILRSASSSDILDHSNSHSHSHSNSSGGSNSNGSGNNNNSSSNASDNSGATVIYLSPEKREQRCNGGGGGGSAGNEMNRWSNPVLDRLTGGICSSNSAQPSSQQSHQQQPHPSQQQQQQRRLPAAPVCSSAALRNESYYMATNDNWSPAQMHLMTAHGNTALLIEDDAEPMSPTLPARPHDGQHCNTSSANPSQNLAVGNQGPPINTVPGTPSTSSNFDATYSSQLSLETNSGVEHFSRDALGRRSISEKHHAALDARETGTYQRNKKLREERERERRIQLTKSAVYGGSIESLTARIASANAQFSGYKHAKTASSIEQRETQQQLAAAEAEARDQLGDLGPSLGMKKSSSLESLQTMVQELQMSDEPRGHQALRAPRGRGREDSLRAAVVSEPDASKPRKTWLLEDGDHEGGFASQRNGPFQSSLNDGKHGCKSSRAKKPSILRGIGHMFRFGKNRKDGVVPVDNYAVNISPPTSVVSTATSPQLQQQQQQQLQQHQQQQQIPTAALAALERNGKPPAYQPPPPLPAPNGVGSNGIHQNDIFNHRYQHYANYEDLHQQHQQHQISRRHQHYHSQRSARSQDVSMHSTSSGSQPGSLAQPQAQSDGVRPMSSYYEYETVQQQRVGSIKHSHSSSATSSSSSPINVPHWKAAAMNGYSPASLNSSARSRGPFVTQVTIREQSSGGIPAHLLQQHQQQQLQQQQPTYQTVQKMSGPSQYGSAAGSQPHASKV

T2: Flag-Insc (Inscuteable) (Drosophila) (UniProt Q24367)
T2 sequence: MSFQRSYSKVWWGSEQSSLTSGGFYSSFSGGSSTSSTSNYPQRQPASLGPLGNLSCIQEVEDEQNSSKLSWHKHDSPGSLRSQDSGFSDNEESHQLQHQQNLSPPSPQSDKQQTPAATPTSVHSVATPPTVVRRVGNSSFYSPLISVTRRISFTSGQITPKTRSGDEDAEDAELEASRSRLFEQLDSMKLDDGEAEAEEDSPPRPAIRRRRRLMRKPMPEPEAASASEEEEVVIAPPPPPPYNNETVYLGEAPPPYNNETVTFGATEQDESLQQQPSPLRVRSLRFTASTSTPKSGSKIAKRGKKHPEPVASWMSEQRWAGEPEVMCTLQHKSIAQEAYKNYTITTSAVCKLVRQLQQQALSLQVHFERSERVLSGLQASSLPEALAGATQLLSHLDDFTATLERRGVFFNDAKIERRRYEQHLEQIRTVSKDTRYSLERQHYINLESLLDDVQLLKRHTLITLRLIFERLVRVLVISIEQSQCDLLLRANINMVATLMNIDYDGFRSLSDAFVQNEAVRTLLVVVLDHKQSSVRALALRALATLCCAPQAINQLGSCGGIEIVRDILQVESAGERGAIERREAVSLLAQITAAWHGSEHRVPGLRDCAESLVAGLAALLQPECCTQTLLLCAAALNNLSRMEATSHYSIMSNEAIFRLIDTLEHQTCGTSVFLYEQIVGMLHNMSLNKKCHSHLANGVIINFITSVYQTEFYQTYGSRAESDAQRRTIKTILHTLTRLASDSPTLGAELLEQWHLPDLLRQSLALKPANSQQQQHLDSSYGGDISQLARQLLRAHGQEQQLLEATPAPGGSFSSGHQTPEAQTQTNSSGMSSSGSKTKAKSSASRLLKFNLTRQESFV

T3: Myc-tagged Baz (Bazooka, Par3) (Drosophila) (UniProt O96782)
T3 sequence: T1 sequence

T4: Bazooka (Baz, Par3), endogenous in embryos (Drosophila (endogenous in embryos)) (UniProt O96782)
T4 sequence: T1 sequence

T5: Inscuteable (Insc), endogenous in embryos (Drosophila (endogenous in embryos)) (UniProt Q24367)
T5 sequence: T2 sequence

B1: armadillo (arm)/β-catenin, expressed in S2 cells (protein, UniProt P18824 1-843)
chain: MSYMPAQNRTMSHNNQYNPPDLPPMVSAKEQTLMWQQNSYLGDSGIHSGAVTQVPSLSGKEDEEMEGDPLMFDLDTGFPQNFTQDQVDDMNQQLSQTRSQRVRAAMFPETLEEGIEIPSTQFDPQQPTAVQRLSEPSQMLKHAVVNLINYQDDAELATRAIPELIKLLNDEDQVVVSQAAMMVHQLSKKEASRHAIMNSPQMVAALVRAISNSNDLESTKAAVGTLHNLSHHRQGLLAIFKSGGIPALVKLLSSPVESVLFYAITTLHNLLLHQDGSKMAVRLAGGLQKMVTLLQRNNVKFLAIVTDCLQILAYGNQESKLIILASGGPNELVRIMRSYDYEKLLWTTSRVLKVLSVCSSNKPAIVDAGGMQALAMHLGNMSPRLVQNCLWTLRNLSDAATKVEGLEALLQSLVQVLGSTDVNVVTCAAGILSNLTCNNQRNKATVCQVGGVDALVRTIINAGDREEITEPAVCALRHLTSRHVDSELAQNAVRLNYGLSVIVKLLHPPSRWPLIKAVIGLIRNLALCPANHAPLREHGAIHHLVRLLMRAFQDTERQRSSIATTGSQQPSAYADGVRMEEIVEGTVGALHILARESHNRALIRQQSVIPIFVRLLFNEIENIQRVAAGVLCELAADKEGAEIIEQEGATGPLTDLLHSRNEGVATYAAAVLFRMSEDKPQDYKKRLSIELTNSLLREDNNIWANADLGMGPDLQDMLGPEEAYEGLYGQGPPSVHSSHGGRAFHQQGYDTLPIDSMQGLEISSPVGGGGAGGAPGNGGAVGGASGGGGNIGAIPPSGAPTSPYSMDMDVGEIDAGALNFDLDAMPTPPNDNNNLAAWYDTDC
B2: armadillo (arm)/β-catenin, endogenous in embryos (protein, UniProt P18824 1-843)
chain: B1 chain
B3: Flag-Insc (Inscuteable) (protein, UniProt Q24367 1-859)
chain: T2 sequence

Key:
Experiment in all cases: co-IP
[1] = molecular target: T1, Flag-Baz (Bazooka, Par3) (Drosophila)
[2] = molecular target: T2, Flag-Insc (Inscuteable) (Drosophila)
[3] = molecular target: T3, Myc-tagged Baz (Bazooka, Par3) (Drosophila)
[4] = molecular target: T4, Bazooka (Baz, Par3), endogenous in embryos (Drosophila (endogenous in embryos))
[5] = molecular target: T5, Inscuteable (Insc), endogenous in embryos (Drosophila (endogenous in embryos))

Binder	binding [1]	binding [2]	binding [3]	binding [4]	binding [5]
B1	binds	binds	binds	–	–
B2	–	–	–	binds	binds
B3	–	–	binds	–	–
